No constants are given. Whether binding was seen depends on the method and setting. Binding seen in cells or lysates may run through a third protein. Some binding calls cover weakened binding; strength is not graded here.
Biological target: adenomatous polyposis coli (APC) (human (endogenous in 293 T)) (UniProt P25054)
Assay: co-IP; IP with anti-APC antibody from lysate of 293 T cells with or without circAXIN1 overexpression (also in increasing doses); immunoblot

Amino acid sequences for entries named in this document (tags omitted). A change or cut given only in a name is not applied to a line headed by its entry. Chains listed by the source or under a name are the forms on record and can include a tag or linker.
UniProt P25054: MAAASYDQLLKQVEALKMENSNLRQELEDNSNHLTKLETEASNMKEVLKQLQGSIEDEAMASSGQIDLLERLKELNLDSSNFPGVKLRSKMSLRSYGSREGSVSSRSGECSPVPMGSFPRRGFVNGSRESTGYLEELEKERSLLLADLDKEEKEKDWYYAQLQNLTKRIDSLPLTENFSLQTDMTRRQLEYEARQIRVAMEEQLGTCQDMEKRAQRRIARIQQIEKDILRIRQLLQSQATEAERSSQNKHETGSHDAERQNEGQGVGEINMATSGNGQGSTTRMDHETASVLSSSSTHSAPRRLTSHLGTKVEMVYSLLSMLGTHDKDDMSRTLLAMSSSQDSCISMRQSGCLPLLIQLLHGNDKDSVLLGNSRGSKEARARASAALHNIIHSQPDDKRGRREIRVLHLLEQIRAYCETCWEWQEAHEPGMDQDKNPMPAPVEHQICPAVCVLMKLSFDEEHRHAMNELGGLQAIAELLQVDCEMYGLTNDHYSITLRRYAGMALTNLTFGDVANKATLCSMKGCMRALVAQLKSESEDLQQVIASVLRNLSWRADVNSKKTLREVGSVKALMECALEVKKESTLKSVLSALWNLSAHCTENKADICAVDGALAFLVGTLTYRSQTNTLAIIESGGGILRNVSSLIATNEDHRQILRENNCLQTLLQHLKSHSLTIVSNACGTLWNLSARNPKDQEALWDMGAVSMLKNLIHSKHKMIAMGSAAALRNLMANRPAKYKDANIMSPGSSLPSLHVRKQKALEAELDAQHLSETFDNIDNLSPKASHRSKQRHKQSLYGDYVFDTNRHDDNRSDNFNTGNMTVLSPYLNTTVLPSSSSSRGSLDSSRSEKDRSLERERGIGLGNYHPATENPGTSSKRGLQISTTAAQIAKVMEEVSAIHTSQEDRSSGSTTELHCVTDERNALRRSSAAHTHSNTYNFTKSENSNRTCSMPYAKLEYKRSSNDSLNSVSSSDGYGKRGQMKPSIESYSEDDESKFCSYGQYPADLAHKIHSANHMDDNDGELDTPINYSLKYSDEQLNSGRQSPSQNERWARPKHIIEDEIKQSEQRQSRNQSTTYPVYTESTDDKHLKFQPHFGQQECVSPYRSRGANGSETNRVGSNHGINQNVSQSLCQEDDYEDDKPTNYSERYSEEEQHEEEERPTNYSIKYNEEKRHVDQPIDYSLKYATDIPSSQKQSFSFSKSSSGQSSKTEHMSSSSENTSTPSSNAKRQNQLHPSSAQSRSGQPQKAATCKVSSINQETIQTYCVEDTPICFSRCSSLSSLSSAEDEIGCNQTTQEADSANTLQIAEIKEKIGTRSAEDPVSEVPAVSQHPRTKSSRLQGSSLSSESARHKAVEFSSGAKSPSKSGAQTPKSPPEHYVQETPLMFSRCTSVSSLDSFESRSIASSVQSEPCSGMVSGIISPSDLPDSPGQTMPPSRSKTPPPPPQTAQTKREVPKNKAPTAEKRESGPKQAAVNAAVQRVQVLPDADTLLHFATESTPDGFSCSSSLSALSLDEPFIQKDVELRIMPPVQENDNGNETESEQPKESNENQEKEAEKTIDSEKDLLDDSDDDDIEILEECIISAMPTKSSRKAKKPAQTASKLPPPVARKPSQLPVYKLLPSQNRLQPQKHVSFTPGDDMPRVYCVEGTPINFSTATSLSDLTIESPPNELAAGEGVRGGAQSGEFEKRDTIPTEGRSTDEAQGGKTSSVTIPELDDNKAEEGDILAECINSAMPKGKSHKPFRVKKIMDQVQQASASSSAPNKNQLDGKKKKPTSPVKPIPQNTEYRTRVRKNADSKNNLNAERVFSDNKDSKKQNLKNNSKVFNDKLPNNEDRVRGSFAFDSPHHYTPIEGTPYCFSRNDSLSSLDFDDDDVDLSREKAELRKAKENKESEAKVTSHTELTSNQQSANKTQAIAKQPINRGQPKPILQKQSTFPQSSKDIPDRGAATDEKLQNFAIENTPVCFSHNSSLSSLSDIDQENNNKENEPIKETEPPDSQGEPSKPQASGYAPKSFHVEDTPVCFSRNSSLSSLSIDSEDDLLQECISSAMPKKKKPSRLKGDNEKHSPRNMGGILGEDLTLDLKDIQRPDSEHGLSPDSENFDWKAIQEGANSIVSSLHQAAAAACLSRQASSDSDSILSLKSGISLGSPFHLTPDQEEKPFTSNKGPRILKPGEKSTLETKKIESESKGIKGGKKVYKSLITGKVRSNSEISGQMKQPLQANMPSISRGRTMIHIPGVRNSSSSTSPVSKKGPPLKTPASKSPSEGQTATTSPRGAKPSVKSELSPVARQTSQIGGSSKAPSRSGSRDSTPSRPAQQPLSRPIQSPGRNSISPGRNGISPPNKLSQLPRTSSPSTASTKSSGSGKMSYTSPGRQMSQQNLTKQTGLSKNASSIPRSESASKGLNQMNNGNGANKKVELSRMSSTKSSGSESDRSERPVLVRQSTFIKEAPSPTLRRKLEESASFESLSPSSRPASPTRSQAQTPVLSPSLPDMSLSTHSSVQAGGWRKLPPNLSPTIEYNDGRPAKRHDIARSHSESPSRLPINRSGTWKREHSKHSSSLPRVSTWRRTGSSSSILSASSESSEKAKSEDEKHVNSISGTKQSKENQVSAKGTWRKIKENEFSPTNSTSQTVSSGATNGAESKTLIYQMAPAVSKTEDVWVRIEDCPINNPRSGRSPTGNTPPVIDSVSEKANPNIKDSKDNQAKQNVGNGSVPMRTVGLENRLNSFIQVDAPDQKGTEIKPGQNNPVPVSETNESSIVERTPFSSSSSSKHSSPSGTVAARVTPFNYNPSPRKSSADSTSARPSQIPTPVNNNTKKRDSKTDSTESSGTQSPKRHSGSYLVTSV
UniProt O15169: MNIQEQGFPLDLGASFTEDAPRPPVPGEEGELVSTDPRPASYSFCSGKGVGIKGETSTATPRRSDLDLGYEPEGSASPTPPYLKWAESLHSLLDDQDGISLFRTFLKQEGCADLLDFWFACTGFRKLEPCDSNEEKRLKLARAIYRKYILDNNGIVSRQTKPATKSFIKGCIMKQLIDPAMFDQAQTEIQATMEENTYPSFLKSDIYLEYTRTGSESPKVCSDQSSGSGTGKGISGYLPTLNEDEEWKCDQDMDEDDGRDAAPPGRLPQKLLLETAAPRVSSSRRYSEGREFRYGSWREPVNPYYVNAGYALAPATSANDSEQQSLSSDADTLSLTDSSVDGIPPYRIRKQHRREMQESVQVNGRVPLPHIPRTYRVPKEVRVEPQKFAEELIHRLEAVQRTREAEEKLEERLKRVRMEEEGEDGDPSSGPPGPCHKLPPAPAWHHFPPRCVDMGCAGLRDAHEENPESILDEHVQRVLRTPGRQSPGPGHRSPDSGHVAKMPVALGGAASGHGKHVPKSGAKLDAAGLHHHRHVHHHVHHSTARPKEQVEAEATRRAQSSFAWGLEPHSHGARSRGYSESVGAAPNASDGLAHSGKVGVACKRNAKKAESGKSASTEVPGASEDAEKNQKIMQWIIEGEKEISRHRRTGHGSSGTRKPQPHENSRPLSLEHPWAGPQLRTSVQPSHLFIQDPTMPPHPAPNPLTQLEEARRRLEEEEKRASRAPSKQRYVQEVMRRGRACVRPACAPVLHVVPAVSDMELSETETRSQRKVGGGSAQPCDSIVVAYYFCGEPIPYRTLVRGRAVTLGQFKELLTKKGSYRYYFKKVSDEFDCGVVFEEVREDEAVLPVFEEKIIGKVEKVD
AXIN1-295aa (O15169, form named): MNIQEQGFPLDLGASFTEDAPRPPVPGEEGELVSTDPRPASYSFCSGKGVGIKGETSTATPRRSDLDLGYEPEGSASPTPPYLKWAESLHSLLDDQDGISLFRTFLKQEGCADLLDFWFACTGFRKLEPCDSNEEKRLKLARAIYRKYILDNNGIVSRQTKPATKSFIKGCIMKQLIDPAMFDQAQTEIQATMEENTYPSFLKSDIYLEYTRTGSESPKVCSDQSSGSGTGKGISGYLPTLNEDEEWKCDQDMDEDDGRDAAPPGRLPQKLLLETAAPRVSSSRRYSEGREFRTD

Row | Substance | binding
1 | AXIN1 (from UniProt O15169 1-862) | binds
2 | AXIN1-295aa (from UniProt O15169 1-293) | binds

Source: publication PMC8642992
